# Earlier results as cited in patent publication US20230381158A1, “COMPOSITIONS FOR THE TREATMENT OF NON-ALCOHOLIC FATTY LIVER DISEASE AND NON-ALCOHOLIC STEATOHEPATITIS” (LUMOS PHARMA, INC., priority 2018, published 2023).
# For at least one compound, name, drawing or mass did not settle the structure.
# Tested on: Type 2 diabetic patients
# Conditions: Type 2 diabetic patients on metformin and/or a sulphonylurea agent, 12 week treatment
structure (smiles),measurement,value
CCCCCCCCCCCCCCCC(=O)N[C@@H](CCC(=O)NCCCC[C@H](NC(=O)[C@H](C)NC(=O)[C@H](C)NC(=O)[C@H](CCC(N)=O)NC(=O)CNC(=O)[C@H](CCC(=O)O)NC(=O)[C@H](CC(C)C)NC(=O)[C@H](Cc1ccc(O)cc1)NC(=O)[C@H](CO)NC(=O)[C@H](CO)NC(=O)[C@@H](NC(=O)[C@H](CC(=O)O)NC(=O)[C@H](CO)NC(=O)[C@@H](NC(=O)[C@H](Cc1ccccc1)NC(=O)[C@@H](NC(=O)CNC(=O)[C@H](CCC(=O)O)NC(=O)[C@H](C)NC(=O)[C@@H](N)Cc1cnc[nH]1)[C@@H](C)O)[C@@H](C)O)C(C)C)C(=O)N[C@@H](CCC(=O)O)C(=O)N[C@@H](Cc1ccccc1)C(=O)N[C@H](C(=O)N[C@@H](C)C(=O)N[C@@H](Cc1c[nH]c2ccccc12)C(=O)N[C@@H](CC(C)C)C(=O)N[C@H](C(=O)N[C@@H](CCCNC(=N)N)C(=O)NCC(=O)N[C@@H](CCCNC(=N)N)C(=O)NCC(=O)O)C(C)C)[C@@H](C)CC)C(=O)O [liraglutide],hepatic steatosis or fibrosis,neither treatment reduced hepatic steatosis or fibrosis
